Measurements reported in PubChem BioAssay AID1224828 (NIAID, 2016).
This is a random part of about 17,000 reagents tested. Of all reagents, 762 (4.5%) got an active call. 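Active calls include both raised and lowered p65 entry, mostly lowered; wells with fewer than 50 cells lack a z-score.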 Raw values are not corrected between plates. Entries without a mark were called inactive.

Assay: 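Knock-downs that increase or decrease LPS-induced p65 nuclear translocation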 (primary screen)
Cells: mouse RAW264.7 G9 macrophage reporter cells (GFP-p65, Tnf promoter-mCherry)
Reagent: siRNA pool against mouse genes, 100 nM
Duration: 2 days siRNA transfection, then 40 min LPS before fixation
Challenge: LPS (Salmonella minnesota R595) at 10 ng/ml
Read-out: 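Imaged p65 nuclear translocation ratio, normalised to the plate median, converted to robust z-scores and averaged across two replicates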
Scale: p65 translocation robust z-score: higher = more nuclear NF-kappaB p65 after LPS than the plate median; nuclear/cytoplasmic p65 ratio: higher = more nuclear NF-kappaB p65
Call rule: 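Active if robust z is above 3.3 (negative regulators) or below -1.56, the Tlr4 control median (positive regulators); activity score 50 or more; control wells not called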
Meaning of the calls: active = hit (p65 shift raised or lowered); inactive = no clear change

no.	gene	p65 translocation robust z-score	nuclear/cytoplasmic p65 ratio, rep 1	nuclear/cytoplasmic p65 ratio, rep 2	low cell count flag
1	Palm	-0.65	1.32	1.2	enough cells to score
2	Ifitm5	-0.43	1.48	1.39	enough cells to score
3	Spem2		1.24	1.18	fewer than 50 cells per well; well left out of scoring
4	Stau1	0.69	1.51	1.27	enough cells to score
5	Ndufab1	-0.21	1.81	1.51	enough cells to score
6	Naa16	0.46	1.55	1.55	enough cells to score
7	2210408I21Rik		1.25	1.25	fewer than 50 cells per well; well left out of scoring
8	Anxa8	-0.78	1.53	1.48	enough cells to score
9	Aif1	1.32	1.7	1.93	enough cells to score
10	Cyp2d9	-1	1.41	1.62	enough cells to score
11	Adora1	-1.68 (active)	1.33	1.28	enough cells to score
12	Prss23		1.22	1.06	fewer than 50 cells per well; well left out of scoring
13	Flot2	-1.52	1.35	1.36	enough cells to score

4 entries already listed, ordered by “nuclear/cytoplasmic p65 ratio, rep 1”, low to high:
gene	p65 translocation robust z-score	nuclear/cytoplasmic p65 ratio, rep 1	nuclear/cytoplasmic p65 ratio, rep 2	low cell count flag
2210408I21Rik		1.25	1.25	fewer than 50 cells per well; well left out of scoring
Anxa8	-0.78	1.53	1.48	enough cells to score
Naa16	0.46	1.55	1.55	enough cells to score
Ndufab1	-0.21	1.81	1.51	enough cells to score

Next reagents:
no.	gene	p65 translocation robust z-score	nuclear/cytoplasmic p65 ratio, rep 1	nuclear/cytoplasmic p65 ratio, rep 2	low cell count flag
14	Prl	0.85	1.63	1.5	enough cells to score
15	Hmx1	-1.42	1.16	1.28	enough cells to score
16	Abcb4	-0.75	1.51	1.49	enough cells to score
17	Vmn2r30	-0.92	1.25	1.14	enough cells to score
18	Abcf3	0.9	1.68	1.88	enough cells to score
19	S100a1	2.96	1.84	2.03	enough cells to score
20	Sgo1		1.29	1.15	fewer than 50 cells per well; well left out of scoring
21	Usp20	-0.04	1.45	1.55	enough cells to score
22	Ssu72		1.32	1.46	fewer than 50 cells per well; well left out of scoring
23	Rad51c	0.64	1.62	1.6	enough cells to score
24	A730018C14Rik	2.24	1.74	1.84	enough cells to score
